From doi:10.1101/2024.04.29.591624
These are yes or no findings as the source states them, for the method shown. Binding seen in cells or lysates may run through a third protein. Some binding calls cover weakened binding; strength is not graded here.

Chains of the proteins cited; added tags and fusions are not shown. Lines headed by an entry give the natural chain unless they say otherwise; changes in a name come on top. Residues count along the entry.
UniProt P46531, residues 1754-2555: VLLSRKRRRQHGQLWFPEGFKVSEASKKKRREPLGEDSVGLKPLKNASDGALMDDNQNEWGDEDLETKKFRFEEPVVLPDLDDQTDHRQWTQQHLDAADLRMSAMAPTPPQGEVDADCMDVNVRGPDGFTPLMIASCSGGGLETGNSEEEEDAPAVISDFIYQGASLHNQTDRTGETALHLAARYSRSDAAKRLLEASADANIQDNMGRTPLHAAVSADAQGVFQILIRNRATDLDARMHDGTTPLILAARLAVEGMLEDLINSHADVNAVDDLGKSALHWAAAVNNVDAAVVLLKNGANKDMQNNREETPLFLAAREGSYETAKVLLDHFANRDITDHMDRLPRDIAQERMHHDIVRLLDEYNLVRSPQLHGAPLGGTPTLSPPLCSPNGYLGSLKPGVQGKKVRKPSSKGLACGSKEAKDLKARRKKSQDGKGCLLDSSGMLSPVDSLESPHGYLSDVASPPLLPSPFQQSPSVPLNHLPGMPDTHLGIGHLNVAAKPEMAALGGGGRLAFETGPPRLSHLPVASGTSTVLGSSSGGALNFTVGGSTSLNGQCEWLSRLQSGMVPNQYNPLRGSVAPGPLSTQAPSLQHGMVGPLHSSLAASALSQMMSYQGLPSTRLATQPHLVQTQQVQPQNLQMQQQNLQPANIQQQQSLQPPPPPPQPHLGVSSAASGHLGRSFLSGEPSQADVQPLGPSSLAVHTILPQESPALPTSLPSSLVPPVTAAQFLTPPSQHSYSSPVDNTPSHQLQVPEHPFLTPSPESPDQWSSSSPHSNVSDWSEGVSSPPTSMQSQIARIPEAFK
UniProt Q00987: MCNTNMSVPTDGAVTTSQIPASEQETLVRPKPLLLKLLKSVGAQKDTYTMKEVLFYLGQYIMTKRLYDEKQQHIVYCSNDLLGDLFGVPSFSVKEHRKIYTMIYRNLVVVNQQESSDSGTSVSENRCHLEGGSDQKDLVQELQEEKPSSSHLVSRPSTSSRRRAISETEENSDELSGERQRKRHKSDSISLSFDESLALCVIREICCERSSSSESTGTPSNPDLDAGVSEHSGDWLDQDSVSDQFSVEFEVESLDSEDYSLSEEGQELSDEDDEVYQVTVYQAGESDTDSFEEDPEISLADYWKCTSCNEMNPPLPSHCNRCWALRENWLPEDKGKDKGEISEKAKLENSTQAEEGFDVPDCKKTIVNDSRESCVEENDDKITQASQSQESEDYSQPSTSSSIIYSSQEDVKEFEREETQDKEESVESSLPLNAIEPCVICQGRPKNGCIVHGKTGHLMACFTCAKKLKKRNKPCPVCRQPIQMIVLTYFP

Biological target: Notch Intracellular Domain (NICD), the active form of NOTCH1, produced from the NOTCH1-DeltaEx construct (UniProt P46531)
Test: co-IP

Row | binding | Substance
1 | binds | E3 ligase-dead MDM2 mutant (C464A point mutation in the RING domain) (from UniProt Q00987 1-491) (enzyme)
2 | binds | wild type MDM2 (from UniProt Q00987 1-491) (enzyme)
